Here are results for 22 targets from the supplement of paper PMC12067093, “Discovery and optimisation of a covalent ligand for TRIM25 and its application to targeted protein ubiquitination” (Chemical Science, 2025).

By UniProt entry, the sequences of proteins in these tests, tags left out. Where a name states a change or a piece, a line headed by the entry shows the natural chain unless it says otherwise.
UniProt Q03252: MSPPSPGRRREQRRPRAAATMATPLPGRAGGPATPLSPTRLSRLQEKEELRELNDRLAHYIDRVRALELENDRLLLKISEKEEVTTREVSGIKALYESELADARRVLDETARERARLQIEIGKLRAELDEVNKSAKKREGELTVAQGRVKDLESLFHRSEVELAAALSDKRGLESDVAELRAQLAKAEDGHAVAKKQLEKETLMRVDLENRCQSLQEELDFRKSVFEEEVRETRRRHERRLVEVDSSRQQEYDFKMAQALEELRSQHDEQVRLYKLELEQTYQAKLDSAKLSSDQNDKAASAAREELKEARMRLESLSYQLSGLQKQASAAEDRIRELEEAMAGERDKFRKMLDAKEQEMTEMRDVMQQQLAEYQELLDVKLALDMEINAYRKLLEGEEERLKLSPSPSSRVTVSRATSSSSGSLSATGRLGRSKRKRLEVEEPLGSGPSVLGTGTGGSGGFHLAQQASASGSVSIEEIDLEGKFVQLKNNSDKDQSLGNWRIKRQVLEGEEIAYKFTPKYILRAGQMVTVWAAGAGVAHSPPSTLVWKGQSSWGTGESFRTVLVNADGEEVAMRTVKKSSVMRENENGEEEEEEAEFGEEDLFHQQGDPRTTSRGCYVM
UniProt P48059, whole entry, looked up: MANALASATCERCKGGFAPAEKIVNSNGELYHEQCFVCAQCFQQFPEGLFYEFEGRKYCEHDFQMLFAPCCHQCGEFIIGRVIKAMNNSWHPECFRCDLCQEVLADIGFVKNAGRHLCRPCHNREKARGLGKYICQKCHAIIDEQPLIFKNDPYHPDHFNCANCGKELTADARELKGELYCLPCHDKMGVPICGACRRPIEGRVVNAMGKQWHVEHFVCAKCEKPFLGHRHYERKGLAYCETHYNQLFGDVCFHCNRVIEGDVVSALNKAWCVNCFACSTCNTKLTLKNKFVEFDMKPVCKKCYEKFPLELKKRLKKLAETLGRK
UniProt P09382, whole entry, looked up: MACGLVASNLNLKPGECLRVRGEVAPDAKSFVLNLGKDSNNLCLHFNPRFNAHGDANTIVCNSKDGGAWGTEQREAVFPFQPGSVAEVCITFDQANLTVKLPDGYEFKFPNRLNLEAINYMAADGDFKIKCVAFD
UniProt Q96II8: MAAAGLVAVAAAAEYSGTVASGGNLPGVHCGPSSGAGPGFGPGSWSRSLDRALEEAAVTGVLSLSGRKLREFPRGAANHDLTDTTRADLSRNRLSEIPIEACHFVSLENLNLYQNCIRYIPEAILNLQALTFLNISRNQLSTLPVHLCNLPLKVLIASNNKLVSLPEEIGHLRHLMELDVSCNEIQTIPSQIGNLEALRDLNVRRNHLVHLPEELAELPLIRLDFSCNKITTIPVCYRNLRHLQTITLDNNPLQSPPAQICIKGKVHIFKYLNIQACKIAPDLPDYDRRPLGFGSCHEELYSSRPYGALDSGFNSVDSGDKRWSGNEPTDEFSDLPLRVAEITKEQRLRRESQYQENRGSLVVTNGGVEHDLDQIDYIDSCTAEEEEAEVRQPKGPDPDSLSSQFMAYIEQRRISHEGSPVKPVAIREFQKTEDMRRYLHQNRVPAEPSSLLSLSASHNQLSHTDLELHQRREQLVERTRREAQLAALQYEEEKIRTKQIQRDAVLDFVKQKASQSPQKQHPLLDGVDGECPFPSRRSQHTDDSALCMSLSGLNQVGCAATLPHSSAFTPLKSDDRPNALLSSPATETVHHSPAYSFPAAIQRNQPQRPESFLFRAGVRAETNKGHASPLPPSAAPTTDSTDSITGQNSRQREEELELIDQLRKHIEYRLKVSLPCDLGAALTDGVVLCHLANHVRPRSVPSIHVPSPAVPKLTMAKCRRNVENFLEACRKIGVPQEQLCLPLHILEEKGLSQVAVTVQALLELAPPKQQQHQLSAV
UniProt Q96AG4: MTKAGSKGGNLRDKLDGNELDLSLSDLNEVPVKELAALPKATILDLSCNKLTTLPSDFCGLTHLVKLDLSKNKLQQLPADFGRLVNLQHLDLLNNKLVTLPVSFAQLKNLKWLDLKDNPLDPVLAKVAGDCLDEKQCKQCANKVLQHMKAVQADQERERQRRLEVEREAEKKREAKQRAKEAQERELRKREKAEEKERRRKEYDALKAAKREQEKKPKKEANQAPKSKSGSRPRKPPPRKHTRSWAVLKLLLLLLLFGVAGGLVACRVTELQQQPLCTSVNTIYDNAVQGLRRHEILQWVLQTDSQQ
UniProt Q8ND56: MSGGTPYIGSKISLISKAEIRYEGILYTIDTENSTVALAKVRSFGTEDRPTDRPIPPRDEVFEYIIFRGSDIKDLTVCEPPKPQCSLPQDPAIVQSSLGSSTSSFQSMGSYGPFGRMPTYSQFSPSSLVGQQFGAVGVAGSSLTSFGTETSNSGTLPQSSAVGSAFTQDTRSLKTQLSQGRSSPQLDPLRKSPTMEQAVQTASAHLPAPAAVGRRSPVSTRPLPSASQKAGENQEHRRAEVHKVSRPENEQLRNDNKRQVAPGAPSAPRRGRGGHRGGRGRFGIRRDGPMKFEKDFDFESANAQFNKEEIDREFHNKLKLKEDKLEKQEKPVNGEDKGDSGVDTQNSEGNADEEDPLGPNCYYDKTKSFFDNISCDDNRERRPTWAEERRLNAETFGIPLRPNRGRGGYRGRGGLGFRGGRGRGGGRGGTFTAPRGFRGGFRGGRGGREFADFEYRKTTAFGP
UniProt O95202: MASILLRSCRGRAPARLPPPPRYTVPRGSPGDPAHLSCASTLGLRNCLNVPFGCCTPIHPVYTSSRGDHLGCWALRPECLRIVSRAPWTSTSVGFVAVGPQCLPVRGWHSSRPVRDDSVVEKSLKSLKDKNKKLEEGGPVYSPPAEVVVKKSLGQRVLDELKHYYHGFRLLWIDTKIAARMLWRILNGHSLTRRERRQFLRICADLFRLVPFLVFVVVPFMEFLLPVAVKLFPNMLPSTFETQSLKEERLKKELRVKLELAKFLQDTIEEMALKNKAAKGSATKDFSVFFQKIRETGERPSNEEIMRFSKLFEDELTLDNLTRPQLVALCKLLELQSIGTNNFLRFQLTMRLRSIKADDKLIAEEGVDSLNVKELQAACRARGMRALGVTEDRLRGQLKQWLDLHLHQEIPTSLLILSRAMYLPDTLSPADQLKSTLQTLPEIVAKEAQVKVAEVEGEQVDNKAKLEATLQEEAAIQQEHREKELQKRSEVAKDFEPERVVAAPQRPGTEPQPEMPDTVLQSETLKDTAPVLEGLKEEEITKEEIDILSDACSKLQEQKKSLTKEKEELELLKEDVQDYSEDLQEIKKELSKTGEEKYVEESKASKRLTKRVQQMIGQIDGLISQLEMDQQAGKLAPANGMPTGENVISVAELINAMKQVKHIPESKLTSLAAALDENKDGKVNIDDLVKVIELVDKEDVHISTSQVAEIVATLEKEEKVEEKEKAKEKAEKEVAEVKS
UniProt Q7L5N7: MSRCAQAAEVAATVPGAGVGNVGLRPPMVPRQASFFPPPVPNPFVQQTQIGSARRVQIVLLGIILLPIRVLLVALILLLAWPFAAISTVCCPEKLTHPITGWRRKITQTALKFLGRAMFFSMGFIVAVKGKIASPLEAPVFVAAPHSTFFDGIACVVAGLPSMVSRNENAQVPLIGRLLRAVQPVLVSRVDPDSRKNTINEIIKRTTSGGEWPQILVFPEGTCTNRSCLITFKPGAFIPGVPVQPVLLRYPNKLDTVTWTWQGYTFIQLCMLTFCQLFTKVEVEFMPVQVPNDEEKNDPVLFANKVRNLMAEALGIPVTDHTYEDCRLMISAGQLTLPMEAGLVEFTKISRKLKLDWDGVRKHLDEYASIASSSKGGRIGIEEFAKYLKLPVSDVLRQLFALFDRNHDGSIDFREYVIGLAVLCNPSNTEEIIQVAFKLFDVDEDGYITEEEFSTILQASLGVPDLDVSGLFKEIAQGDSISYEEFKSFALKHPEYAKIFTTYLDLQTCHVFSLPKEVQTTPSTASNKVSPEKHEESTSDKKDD
UniProt P49917: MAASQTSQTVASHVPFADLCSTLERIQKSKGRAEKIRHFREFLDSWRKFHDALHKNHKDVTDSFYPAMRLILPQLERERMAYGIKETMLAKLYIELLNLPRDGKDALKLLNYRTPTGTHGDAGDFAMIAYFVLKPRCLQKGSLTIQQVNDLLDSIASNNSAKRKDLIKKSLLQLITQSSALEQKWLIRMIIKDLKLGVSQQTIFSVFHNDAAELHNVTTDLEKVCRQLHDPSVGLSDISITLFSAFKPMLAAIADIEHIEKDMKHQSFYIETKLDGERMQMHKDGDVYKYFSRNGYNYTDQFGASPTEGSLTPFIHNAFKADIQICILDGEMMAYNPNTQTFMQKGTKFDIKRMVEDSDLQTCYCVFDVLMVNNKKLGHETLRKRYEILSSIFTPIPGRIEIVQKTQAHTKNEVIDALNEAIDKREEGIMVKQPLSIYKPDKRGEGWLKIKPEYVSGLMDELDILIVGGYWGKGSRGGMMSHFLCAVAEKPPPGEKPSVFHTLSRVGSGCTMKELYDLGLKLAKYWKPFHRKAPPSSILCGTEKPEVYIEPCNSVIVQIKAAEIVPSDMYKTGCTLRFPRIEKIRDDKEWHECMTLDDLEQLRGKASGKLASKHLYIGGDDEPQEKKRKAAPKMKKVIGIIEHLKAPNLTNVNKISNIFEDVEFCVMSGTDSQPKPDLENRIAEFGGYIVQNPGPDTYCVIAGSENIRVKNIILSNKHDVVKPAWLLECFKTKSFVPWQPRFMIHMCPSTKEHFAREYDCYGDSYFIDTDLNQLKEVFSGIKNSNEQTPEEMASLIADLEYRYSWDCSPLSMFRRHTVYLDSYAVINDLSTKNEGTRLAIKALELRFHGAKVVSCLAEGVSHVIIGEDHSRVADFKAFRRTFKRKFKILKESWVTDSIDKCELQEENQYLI
UniProt Q15048: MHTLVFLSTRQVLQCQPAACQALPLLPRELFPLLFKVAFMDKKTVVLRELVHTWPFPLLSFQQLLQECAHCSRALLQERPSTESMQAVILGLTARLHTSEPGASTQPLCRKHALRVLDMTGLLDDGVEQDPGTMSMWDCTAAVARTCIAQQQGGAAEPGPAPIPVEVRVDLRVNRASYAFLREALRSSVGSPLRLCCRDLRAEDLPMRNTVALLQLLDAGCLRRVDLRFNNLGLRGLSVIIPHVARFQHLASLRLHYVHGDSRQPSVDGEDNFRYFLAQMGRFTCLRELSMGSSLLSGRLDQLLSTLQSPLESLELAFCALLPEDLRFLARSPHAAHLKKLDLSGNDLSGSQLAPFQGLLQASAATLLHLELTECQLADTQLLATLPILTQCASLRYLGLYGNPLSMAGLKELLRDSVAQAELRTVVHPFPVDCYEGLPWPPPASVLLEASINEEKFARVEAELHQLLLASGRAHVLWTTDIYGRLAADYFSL
UniProt Q8N9N7: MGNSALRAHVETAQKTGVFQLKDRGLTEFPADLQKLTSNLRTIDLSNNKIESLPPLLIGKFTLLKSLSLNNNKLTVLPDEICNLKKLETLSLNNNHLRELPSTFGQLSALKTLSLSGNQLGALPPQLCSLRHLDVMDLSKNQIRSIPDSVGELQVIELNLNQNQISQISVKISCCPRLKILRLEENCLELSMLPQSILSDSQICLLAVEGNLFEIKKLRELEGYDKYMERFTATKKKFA
UniProt P49916: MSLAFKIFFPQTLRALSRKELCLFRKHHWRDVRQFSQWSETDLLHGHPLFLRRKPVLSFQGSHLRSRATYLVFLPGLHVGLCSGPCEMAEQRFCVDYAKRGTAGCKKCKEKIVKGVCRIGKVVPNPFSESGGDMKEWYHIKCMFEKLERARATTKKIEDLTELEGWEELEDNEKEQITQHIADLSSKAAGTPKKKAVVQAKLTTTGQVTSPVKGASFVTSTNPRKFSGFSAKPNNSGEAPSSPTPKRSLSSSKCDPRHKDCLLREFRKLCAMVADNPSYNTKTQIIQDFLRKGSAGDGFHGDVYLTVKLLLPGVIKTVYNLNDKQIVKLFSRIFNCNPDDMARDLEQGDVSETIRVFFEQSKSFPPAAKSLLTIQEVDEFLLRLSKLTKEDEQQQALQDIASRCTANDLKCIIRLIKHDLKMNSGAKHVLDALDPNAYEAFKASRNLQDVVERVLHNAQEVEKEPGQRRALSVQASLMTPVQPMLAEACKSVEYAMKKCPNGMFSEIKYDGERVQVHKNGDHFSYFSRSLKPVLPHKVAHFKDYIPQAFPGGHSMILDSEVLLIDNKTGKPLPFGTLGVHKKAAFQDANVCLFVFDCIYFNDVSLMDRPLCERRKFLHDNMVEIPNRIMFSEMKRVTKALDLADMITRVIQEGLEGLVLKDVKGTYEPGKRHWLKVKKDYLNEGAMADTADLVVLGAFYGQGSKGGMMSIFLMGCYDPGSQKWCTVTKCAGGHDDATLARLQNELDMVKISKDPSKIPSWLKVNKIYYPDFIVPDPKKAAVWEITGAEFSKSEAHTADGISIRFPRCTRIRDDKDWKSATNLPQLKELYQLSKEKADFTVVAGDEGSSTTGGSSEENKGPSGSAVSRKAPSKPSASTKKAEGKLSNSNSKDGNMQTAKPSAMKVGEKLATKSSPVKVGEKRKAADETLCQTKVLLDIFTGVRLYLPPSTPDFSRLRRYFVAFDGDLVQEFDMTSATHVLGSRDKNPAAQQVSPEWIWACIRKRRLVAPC

Some of the results follow.

Compound in this experiment: CC1Cc2ccccc2N1C(=O)C1CCCN(C1)C(=O)CCl (mixture of isomers) [TRIM25 ligand 11 (diastereomer mixture)]
In words: probe-labelled cysteine peptide fold change vs DMSO (competition) (log2 fold change); higher = less target engagement (more negative = stronger competition). To be noted: THP-1, incubation time: 4 h.
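Further: competitive chemoproteomic profiling in live THP-1 cells with an iodoacetamide desthiobiotin (IA-DTB) probe, comparing probe-labelled peptide intensities in compound-treated cells against DMSO-treated controls.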

Regarding “LMNB2_Q03252_212_CQSLQEELDFR (UniProt Q03252)”, the “probe-labelled cysteine peptide fold change” value reads like this: (10 µM) 0.21; (50 µM) 0.184.
Take “LMO7_Q8WWI1_228_DSGYGDIWCPER (UniProt Q8WWI1)”: the “probe-labelled cysteine peptide fold change” value is -0.0808 (10 µM) and -0.215 (50 µM).
Take “LRPPRC_P42704_721_AKYESDMVTGGYAALINLCCR (UniProt P42704)”: the “probe-labelled cysteine peptide fold change” value (10 µM) was -0.0767 and the “probe-labelled cysteine peptide fold change” value (50 µM) was determined as 0.0184.
In the same order, the values of “LRRC47_Q8N1G4_450_YLHLLDGNENYPCLVDADGDVISFPPITNSEK (UniProt Q8N1G4)” are -0.36 and -0.3.
In the same order, the values of “LIMS1_P48059_219_QWHVEHFVCAK (UniProt P48059)” are -0.107 and 0.00751.
For “LRRC8D_Q7L1W4_733_CLDVSYNNISMIPIEIGLLQNLQHLHITGNK (UniProt Q7L1W4)” the same measures were 0.312 and 0.513.
Consider “LGALS1_P09382_3_ACGLVASNLNLK (UniProt P09382)”, for which the “probe-labelled cysteine peptide fold change” value came to 0.117 (10 µM) and 0.0383 (50 µM).
Consider “LRCH3_Q96II8_531_QHPLLDGVDGECPFPSR (UniProt Q96II8)”, for which the “probe-labelled cysteine peptide fold change” value by setting is: (10 µM) -0.153; (50 µM) -0.145.
For “LGALS1_P09382_61_FNAHGDANTIVCNSK (UniProt P09382)” the same measures were 0.00552 and -0.0727.
In the same order, the values of “LRRC59_Q96AG4_59_LTTLPSDFCGLTHLVK (UniProt Q96AG4)” are -0.0457 and -0.245.
For “LSM14A_Q8ND56_375_SFFDNISCDDNR (UniProt Q8ND56)” the same measures were -0.0884 and -0.473.
Consider “LETM1_O95202_330_LFEDELTLDNLTRPQLVALCK (UniProt O95202)”, for which the “probe-labelled cysteine peptide fold change” value was 0.387 (10 µM) and -0.263 (50 µM).
Regarding “LPCAT2_Q7L5N7_4_CAQAAEVAATVPGAGVGNVGLRPPMVPR (UniProt Q7L5N7)”, the “probe-labelled cysteine peptide fold change” value is, setting by setting: (10 µM) -0.166; (50 µM) -0.27.
For “LPCAT2_Q7L5N7_223_RTTSGGEWPQILVFPEGTCTNR (UniProt Q7L5N7)” the same measures were 0.0202 and 0.206.
In the same order, the values of “LIMS1_P48059_10_ANALASATCER (UniProt P48059)” are 0.0433 and -0.283.
Turning to “LRPPRC_P42704_380_EDGPSVFGSFFLQHCVTMNTPVEK (UniProt P42704)”, the “probe-labelled cysteine peptide fold change” value amounted to 0.255 (10 µM) and 0.117 (50 µM).
For “LIG4_P49917_593_EWHECMTLDDLEQLR (UniProt P49917)” the same measures were -0.157 and -0.026.
For “LGALS9_O00182_312+316_GQSFSVWILCEAHCLK (UniProt O00182)” the same measures were 0.132 and 0.0872.
For “LRPPRC_P42704_952_LFECDR (UniProt P42704)” the same measures were 0.348 and 0.342.
Consider “LRRC14_Q15048_221_NTVALLQLLDAGCLR (UniProt Q15048)”, for which the “probe-labelled cysteine peptide fold change” value is, setting by setting: (10 µM) -0.0645; (50 µM) -0.163.
In the same order, the values of “LRRC57_Q8N9N7_82_LTVLPDEICNLK (UniProt Q8N9N7)” are -0.00822 and -0.083.
In the same order, the values of “LIG3_P49916_929_AADETLCQTK (UniProt P49916)” are 0.0879 and -0.117.
